Measurements reported in paper doi:10.1101/189324.
No constants are given. Whether binding was seen depends on the method and setting. Binding calls can cover weak binding; strength is not graded here. Sequences can lack the tags named with a protein.

T1: Recombinant His-tagged secretagogin (SCGN) (UniProt Q91WD9)
T1 sequence: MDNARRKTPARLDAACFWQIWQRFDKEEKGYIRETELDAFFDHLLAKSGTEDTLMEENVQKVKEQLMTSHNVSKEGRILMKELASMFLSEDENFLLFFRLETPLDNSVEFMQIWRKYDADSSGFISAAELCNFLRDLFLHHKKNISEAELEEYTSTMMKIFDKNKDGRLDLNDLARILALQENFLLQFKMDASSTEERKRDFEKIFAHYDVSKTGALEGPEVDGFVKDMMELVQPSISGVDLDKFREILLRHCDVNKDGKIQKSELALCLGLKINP


Assays:
[1] = molecular target: T1, Recombinant His-tagged secretagogin (SCGN); experiment: near-UV circular dichroism
[2] = molecular target: T1, Recombinant His-tagged secretagogin (SCGN); experiment: near-UV circular dichroism; remark: listed apart in the source
[3] = molecular target: T1, Recombinant His-tagged secretagogin (SCGN); experiment: other fluorescence titration
[4] = molecular target: T1, Recombinant His-tagged secretagogin (SCGN); experiment: other fluorescence titration; remark: listed apart in the source
[5] = molecular target: Insulin (purified, used in vitro); experiment: far-Western, overlay or dot blot
[6] = molecular target: Insulin (purified, used in vitro); experiment: far-Western, overlay or dot blot; remark: listed apart in the source
[7] = molecular target: Insulin (purified, used in vitro); experiment: SEC

Row | binding [1] | binding [2] | binding [3] | binding [4] | binding [5] | binding [6] | binding [7] | Molecule
1 | binds | binds | binds | binds |  |  |  | Insulin (purified, used in vitro)
2 |  |  |  |  | binds | binds | binds | Recombinant His-tagged secretagogin (SCGN) (protein, UniProt Q91WD9 1-276) MDNARRKTPARLDAACFWQIWQRFDKEEKGYIRETELDAFFDHLLAKSGTEDTLMEENVQKVKEQLMTSHNVSKEGRILMKELASMFLSEDENFLLFFRLETPLDNSVEFMQIWRKYDADSSGFISAAELCNFLRDLFLHHKKNISEAELEEYTSTMMKIFDKNKDGRLDLNDLARILALQENFLLQFKMDASSTEERKRDFEKIFAHYDVSKTGALEGPEVDGFVKDMMELVQPSISGVDLDKFREILLRHCDVNKDGKIQKSELALCLGLKINP
